# Some of the results follow.
# Amino acid sequences for entries named in this document (tags omitted). A change or cut given only in a name is not applied to a line headed by its entry.
# UniProt Q9NXW9: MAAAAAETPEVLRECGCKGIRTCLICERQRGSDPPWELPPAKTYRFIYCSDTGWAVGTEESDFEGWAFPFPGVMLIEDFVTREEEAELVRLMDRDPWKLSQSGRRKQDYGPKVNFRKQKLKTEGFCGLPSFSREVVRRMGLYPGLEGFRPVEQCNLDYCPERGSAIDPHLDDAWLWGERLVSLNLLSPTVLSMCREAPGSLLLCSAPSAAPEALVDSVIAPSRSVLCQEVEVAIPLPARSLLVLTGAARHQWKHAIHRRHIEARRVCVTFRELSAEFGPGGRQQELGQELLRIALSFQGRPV
# UniProt P52895: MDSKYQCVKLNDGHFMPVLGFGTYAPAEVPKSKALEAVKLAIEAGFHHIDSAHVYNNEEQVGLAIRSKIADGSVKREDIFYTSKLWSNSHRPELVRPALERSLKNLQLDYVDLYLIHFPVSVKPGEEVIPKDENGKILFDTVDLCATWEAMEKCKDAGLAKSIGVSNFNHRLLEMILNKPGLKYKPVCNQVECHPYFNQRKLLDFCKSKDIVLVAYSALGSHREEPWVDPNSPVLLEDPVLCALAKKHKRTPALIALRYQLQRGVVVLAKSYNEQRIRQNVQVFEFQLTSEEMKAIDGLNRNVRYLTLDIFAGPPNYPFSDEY
# UniProt Q16186: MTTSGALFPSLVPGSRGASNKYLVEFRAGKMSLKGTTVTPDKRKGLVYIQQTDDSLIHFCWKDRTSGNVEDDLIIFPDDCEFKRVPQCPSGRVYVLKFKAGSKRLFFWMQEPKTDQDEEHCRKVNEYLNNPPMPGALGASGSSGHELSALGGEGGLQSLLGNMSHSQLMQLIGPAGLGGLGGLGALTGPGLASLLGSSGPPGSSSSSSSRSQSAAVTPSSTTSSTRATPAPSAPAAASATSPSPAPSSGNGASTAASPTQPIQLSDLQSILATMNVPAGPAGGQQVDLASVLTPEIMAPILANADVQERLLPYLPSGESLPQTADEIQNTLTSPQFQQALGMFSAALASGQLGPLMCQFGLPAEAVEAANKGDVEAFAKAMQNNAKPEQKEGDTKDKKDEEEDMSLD
# UniProt Q9UKV5, whole entry, looked up: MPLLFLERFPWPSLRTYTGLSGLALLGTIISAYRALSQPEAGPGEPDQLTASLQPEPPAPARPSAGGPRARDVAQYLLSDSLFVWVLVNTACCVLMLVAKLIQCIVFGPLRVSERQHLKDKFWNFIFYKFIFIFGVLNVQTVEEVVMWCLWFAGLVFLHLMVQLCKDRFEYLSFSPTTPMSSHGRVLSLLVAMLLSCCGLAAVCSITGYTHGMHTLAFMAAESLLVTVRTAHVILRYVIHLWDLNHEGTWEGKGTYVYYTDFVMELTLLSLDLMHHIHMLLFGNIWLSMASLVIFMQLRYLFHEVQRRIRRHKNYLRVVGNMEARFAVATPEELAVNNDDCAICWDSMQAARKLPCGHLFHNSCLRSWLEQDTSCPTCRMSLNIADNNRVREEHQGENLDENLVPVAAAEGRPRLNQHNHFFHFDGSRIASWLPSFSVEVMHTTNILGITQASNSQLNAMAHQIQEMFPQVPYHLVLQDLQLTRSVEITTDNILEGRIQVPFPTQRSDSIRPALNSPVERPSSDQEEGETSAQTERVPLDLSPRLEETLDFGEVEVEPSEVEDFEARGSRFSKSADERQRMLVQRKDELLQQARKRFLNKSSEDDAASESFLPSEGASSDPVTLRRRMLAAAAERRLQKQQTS
# UniProt Q9NUQ2: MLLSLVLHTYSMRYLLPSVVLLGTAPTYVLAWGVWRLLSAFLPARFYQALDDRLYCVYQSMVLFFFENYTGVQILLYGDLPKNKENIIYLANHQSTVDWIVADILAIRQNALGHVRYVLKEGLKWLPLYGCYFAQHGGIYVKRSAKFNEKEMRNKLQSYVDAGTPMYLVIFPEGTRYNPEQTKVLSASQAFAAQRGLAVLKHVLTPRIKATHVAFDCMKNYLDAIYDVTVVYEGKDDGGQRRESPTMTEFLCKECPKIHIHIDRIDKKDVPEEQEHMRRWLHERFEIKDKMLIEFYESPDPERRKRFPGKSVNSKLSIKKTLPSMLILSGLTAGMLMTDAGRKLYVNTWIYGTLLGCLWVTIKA
# UniProt Q9Y673: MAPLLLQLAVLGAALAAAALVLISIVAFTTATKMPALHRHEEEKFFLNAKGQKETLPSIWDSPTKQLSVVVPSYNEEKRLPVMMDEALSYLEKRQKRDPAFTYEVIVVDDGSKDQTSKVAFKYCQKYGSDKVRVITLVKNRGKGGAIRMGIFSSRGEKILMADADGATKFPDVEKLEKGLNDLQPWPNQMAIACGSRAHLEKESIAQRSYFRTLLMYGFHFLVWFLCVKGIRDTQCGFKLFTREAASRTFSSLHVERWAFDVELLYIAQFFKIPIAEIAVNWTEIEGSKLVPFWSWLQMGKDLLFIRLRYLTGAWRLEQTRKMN
# UniProt P35612: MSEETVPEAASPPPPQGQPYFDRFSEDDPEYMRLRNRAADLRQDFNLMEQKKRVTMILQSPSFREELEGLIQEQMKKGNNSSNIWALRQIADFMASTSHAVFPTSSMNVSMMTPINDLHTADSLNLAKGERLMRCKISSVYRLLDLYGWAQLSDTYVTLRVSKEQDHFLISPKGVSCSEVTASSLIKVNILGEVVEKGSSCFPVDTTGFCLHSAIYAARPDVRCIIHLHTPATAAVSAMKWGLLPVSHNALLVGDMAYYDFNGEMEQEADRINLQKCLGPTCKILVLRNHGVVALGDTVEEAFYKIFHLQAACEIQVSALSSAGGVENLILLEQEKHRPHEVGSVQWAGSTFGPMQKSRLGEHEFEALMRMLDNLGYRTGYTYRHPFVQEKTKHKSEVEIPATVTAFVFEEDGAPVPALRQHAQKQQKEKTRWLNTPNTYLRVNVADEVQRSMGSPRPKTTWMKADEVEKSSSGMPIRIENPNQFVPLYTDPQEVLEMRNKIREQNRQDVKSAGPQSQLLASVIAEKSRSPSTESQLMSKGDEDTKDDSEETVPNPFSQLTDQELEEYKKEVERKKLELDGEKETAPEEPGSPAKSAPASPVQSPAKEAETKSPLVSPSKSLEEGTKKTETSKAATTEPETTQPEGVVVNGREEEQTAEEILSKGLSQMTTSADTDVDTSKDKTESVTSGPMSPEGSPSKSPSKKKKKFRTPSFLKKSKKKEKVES
# UniProt P35611: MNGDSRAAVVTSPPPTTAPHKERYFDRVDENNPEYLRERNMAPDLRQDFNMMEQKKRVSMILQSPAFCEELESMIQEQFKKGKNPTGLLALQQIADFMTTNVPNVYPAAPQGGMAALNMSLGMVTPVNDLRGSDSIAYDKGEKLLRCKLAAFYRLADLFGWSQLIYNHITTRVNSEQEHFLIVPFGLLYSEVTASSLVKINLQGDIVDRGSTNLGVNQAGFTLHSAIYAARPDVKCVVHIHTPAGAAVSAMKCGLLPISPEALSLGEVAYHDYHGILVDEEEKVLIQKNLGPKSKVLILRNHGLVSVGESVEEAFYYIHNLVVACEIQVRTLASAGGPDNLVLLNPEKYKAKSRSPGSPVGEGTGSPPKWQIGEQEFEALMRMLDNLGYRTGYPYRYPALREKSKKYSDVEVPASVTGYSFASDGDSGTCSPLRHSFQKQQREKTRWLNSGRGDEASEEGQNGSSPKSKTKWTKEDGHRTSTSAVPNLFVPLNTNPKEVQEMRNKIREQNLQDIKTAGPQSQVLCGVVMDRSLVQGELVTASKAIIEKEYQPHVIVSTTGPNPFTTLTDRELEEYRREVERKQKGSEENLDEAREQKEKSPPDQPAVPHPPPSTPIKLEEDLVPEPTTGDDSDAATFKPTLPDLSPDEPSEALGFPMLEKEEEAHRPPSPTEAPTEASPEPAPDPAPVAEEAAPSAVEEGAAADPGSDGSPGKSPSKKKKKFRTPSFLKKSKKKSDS
# UniProt P30837: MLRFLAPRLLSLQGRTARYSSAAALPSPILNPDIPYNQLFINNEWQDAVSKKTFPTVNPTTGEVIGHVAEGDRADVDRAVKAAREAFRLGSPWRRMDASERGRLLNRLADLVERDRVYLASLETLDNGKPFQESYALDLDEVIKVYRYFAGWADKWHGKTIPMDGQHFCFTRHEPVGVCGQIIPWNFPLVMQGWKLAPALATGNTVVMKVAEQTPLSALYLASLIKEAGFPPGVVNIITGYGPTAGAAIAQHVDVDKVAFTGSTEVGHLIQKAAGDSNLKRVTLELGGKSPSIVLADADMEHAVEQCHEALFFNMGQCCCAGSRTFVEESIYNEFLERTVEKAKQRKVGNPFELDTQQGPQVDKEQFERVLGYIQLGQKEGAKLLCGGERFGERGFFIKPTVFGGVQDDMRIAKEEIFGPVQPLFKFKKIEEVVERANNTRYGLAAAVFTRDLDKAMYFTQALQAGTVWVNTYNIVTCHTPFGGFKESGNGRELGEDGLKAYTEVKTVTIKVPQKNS
# UniProt P05091: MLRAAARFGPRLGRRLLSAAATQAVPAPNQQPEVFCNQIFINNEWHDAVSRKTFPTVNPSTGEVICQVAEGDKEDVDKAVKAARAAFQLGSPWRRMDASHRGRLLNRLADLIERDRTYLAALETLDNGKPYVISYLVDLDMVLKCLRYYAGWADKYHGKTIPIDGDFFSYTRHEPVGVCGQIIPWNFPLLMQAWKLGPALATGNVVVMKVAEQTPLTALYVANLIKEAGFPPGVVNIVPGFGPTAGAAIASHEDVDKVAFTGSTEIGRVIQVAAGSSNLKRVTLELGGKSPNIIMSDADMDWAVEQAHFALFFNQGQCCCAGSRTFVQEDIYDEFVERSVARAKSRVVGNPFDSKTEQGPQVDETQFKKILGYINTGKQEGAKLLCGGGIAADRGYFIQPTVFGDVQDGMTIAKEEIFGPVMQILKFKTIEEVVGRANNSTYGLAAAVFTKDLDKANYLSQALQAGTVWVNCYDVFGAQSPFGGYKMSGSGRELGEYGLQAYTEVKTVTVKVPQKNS
# UniProt P31751: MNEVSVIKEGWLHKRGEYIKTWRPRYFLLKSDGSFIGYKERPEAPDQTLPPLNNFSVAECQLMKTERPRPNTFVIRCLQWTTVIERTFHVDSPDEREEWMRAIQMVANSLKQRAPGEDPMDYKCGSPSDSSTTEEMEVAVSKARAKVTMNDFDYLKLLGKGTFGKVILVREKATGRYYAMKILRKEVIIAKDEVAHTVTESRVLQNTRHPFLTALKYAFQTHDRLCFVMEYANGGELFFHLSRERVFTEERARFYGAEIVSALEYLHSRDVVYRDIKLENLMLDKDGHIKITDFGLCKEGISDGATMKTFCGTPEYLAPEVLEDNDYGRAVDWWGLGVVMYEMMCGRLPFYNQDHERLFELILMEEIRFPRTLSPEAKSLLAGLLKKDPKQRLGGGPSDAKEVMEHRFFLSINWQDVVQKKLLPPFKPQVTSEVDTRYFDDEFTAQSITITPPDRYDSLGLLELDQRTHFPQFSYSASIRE
# UniProt Q9Y3D8, whole entry, looked up: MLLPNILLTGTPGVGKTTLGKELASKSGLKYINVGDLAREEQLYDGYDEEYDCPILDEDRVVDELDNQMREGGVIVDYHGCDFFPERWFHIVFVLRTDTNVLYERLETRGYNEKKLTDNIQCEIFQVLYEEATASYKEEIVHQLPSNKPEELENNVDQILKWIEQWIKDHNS
# UniProt P04075: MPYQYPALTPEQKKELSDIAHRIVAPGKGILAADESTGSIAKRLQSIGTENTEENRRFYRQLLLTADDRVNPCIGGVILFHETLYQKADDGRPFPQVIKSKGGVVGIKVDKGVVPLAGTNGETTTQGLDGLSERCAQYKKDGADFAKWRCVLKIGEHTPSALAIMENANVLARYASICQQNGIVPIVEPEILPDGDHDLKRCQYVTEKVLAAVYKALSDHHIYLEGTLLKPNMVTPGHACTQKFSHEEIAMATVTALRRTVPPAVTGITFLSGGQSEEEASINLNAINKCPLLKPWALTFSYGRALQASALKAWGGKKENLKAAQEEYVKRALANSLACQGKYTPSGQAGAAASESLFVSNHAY
# UniProt Q9NRZ5: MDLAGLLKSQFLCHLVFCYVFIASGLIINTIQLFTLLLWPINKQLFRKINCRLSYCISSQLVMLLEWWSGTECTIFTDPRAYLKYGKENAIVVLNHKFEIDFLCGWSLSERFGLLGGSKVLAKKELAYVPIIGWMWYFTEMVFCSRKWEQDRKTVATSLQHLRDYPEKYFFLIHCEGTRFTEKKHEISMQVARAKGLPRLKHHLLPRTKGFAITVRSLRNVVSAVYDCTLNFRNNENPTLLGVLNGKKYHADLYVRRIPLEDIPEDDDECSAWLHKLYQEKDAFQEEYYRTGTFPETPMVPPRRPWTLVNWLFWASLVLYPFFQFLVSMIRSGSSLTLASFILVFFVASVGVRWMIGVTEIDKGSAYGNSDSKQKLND
# Tests used:
# Experiment in all cases: log2 fold change, soluble protein after heating vs DMSO (PISA); higher = thermal stabilisation; K562 cells, 10 uM, 30 min; active = over 0.2 and 3.5 SD of the protein, either way, in both replicates (recomputed)
# [1] = compound: CC1=C(C=C(C=C1)NC(=O)C2=CC(=CC=C2)C(C)(C)C#N)NC3=CC4=C(C=C3)N=CN(C4=O)C
# Summary of the method: (§1)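 Values are thermal stability changes relative to control samples and are taken from duplicates. They are stated as log2 fold changes. Before quantification by TMTpro 16plex LC-MS/MS with equalised channel sums, K562 cells at 2×10^6 cells/mL were treated with 10 μM compound for 30 min, heated in aliquots for 3 min across 48°C-58°C, pooled, extracted in PBS with 0.5% NP-40 at 4°C, and centrifuged at 21,000xg for 90 min to give the soluble supernatant.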
# [2] = compound: CC1=C(C=C(C=C1)NC(=O)C2=CC(=CC=C2)N(C)C)NC(=O)C3=CC=C(C=C3)O
# Summary of the method: as §1
# [3] = compound: CC1=CC=C(C=C1)SC2=C3C=C(SC3=CN=C2)C(=O)N
# Summary of the method: as §1
# [4] = compound: CC1=NC(=CC=C1)C2=C(N=C(N2)C(C)(C)C)C3=CC4=NC=CN=C4C=C3
# Summary of the method: as §1
# [5] = compound: CCCCN(Cc1ccc(C(=O)NO)cc1)C(=O)Nc1ccccc1 [Nexturastat A]
# Summary of the method: as §1
# [6] = compound: CCCS(=O)(=O)Nc1ccc(F)c(C(=O)c2c[nH]c3ncc(-c4ccc(Cl)cc4)cc23)c1F [vemurafenib]
# Summary of the method: as §1
# [7] = compound: CCCS(=O)(=O)Nc1ccc(F)c(C(=O)c2c[nH]c3ncc(Cl)cc23)c1F
# Summary of the method: as §1
# [8] = compound: CCCc1cc(C)[nH]c(=O)c1CNC(=O)c1cc(-c2ccnc(N3CCN(C)CC3)c2)cc2c1cnn2C(C)C
# Summary of the method: as §1
# [9] = compound: CCN(CC)Cc1ccc2cc(COC(=O)Nc3ccc(C(=O)NO)cc3)ccc2c1 [givinostat]
# Summary of the method: as §1
# [10] = compound: CCN(CCCOc1ccc2c(Nc3cc(CC(=O)Nc4cccc(F)c4)[nH]n3)ncnc2c1)CCOP(=O)(O)O [barasertib]
# Summary of the method: as §1
# [11] = compound: CC[C@@H]1C(=O)N(C)c2cnc(Nc3ccc(C(=O)NC4CCN(C)CC4)cc3OC)nc2N1C1CCCC1
# Summary of the method: as §1
# [12] = compound: CC[C@@H]1C(=O)N(C)c2cnc(Nc3ccc(C(=O)N[C@H]4CC[C@H](N5CCN(CC6CC6)CC5)CC4)cc3OC)nc2N1C(C)C [volasertib]
# Summary of the method: as §1
# [13] = compound: CC[C@H](C)N1C=C(C2=C(C=C(C=C21)C3=CN=C(C=C3)N4CCNCC4)C(=O)NCC5=C(C=C(NC5=O)C)C)C
# Summary of the method: as §1
# [14] = compound: CC[C@H](C)[C@@H](C(=O)N[C@@H]([C@@H](C)O)C(=O)N[C@@H](CC(C)C)C(=O)[C@]1(CO1)C)NC(=O)[C@H]([C@@H](C)CC)N(C)C(=O)C [epoxomicin]
# Summary of the method: as §1
# [15] = compound: CCn1cc(-c2ccnc3[nH]c(-c4cccc(CN(C)C)c4)cc23)c(-c2ccc(NC(=O)N(C)C)cc2)n1
# Summary of the method: as §1
# [16] = compound: CN(C)CC(=O)Nc1ccc2[nH]c(=O)c3ccccc3c2c1
# Summary of the method: as §1
# [17] = compound: CN1C2=C(C3=C1C(=O)N(N=C3)CC4=CC(=CC=C4)N)SC(=C2)S(=O)C
# Summary of the method: as §1
# [18] = compound: CN1CCC(CNc2ccc3ncc(-c4cccc(OC(F)(F)F)c4)n3n2)CC1
# Summary of the method: as §1
# [19] = compound: CCn1c(C(=O)N(C2CC2)C2CC2)cc2c3c(ncn3C)c(Nc3cc(C)n(C)n3)nc21
# Summary of the method: as §1
# [20] = compound: CN(CCOC1=CC=C(C=C1)C[C@H]2C(=O)NC(=O)S2)C3=CC=CC=N3 (racemic) [rosiglitazone]
# Summary of the method: as §1
Target,log2 fold change [1],log2 fold change [2],log2 fold change [3],log2 fold change [4],log2 fold change [5],log2 fold change [6],log2 fold change [7],log2 fold change [8],log2 fold change [9],log2 fold change [10],log2 fold change [11],log2 fold change [12],log2 fold change [13],log2 fold change [14],log2 fold change [15],log2 fold change [16],log2 fold change [17],log2 fold change [18],log2 fold change [19],log2 fold change [20]
AGPS (UniProt O00116),inactive: 0.126,inactive: 0.012,inactive: 0.013,inactive: -0.001,inactive: -0.084,inactive: 0.02,inactive: 0.041,inactive: -0.043,inactive: -0.033,inactive: 0.06,inactive: -0.005,inactive: -0.021,inactive: 0.002,inactive: 0.031,inactive: -0.102,inactive: 0.039,inactive: -0.09,active: -0.212,,
ALKBH4 (UniProt Q9NXW9),inactive: 0.071,inactive: -0.008,inactive: -0.015,inactive: 0.019,inactive: -0.125,inactive: -0.048,inactive: 0.032,inactive: -0.015,inactive: -0.05,inactive: -0.016,inactive: -0.064,inactive: -0.263,,inactive: 0.117,inactive: -0.023,inactive: 0.056,inactive: -0.077,inactive: -0.082,,
AKR1C2 (UniProt P52895),inactive: -0.153,inactive: -0.222,inactive: -0.166,inactive: -0.077,inactive: 0.205,inactive: -0.046,inactive: -0.179,inactive: 0.024,inactive: 0.159,inactive: -0.018,inactive: 0.27,inactive: 0.087,inactive: 0.03,inactive: -0.139,inactive: 0.002,inactive: -0.006,active: 0.568,inactive: -0.016,,
ADRM1 (UniProt Q16186),inactive: 0.067,inactive: 0.009,inactive: -0.013,inactive: 0.024,inactive: 0.104,inactive: -0.022,inactive: -0.028,inactive: 0.01,inactive: 0.034,inactive: -0.021,inactive: 0.122,inactive: 0.197,inactive: 0.024,inactive: -0.083,inactive: -0.013,inactive: -0.006,inactive: 0.045,inactive: 0.062,,
AFG1L (UniProt Q8WV93),inactive: 0.036,inactive: 0.037,inactive: 0.042,inactive: 0.015,inactive: -0.122,inactive: 0.115,inactive: 0.041,inactive: -0.018,inactive: 0.013,inactive: 0.01,inactive: 0.047,inactive: -0.223,inactive: 0.207,inactive: 0.035,,inactive: 0.063,inactive: -0.122,,,
AMFR (UniProt Q9UKV5),inactive: -0.013,inactive: 0.01,inactive: -0.029,inactive: -0.104,inactive: -0.033,inactive: 0.005,inactive: 0.009,inactive: -0.042,inactive: 0.086,inactive: 0.041,inactive: -0.205,inactive: -0.215,inactive: 0.044,inactive: 0.049,inactive: 0,inactive: -0.007,inactive: 0.01,inactive: -0.055,,
AGRN (UniProt O00468),inactive: -0.089,inactive: -0.294,inactive: -0.031,inactive: 0.014,inactive: -0.051,inactive: -0.025,inactive: -0.072,inactive: 0.024,inactive: -0.011,inactive: 0.011,inactive: 0.042,inactive: -0.001,inactive: 0.005,inactive: 0.065,inactive: 0.053,inactive: 0.016,inactive: 0.062,inactive: -0.02,,
AGPAT5 (UniProt Q9NUQ2),inactive: -0.02,inactive: -0.009,inactive: 0.012,inactive: -0.068,inactive: -0.061,inactive: 0.008,inactive: 0.095,inactive: -0.088,inactive: -0.05,inactive: 0.015,inactive: -0.169,active: -0.281,inactive: -0.068,inactive: 0.007,inactive: -0.13,inactive: 0,inactive: -0.067,inactive: -0.25,,
ALG5 (UniProt Q9Y673),inactive: 0.039,inactive: 0.019,inactive: -0.001,inactive: 0.049,inactive: -0.055,inactive: 0.035,inactive: 0.059,inactive: 0.025,inactive: 0.01,inactive: 0.02,inactive: -0.028,inactive: -0.026,inactive: 0.017,inactive: 0.043,inactive: -0.069,inactive: 0.035,inactive: -0.088,inactive: 0.017,,
ADD2 (UniProt P35612),inactive: -0.014,inactive: 0.018,inactive: -0.01,inactive: 0.002,inactive: 0.026,inactive: -0.03,inactive: -0.002,inactive: 0.01,inactive: -0.007,inactive: -0.011,inactive: 0.037,inactive: 0.031,inactive: -0.044,inactive: 0.006,inactive: -0.043,inactive: -0.038,inactive: -0.02,inactive: 0.008,,
ADPRH (UniProt P54922),inactive: 0.014,inactive: -0.008,inactive: -0.002,inactive: -0.134,inactive: 0.015,inactive: 0.071,inactive: -0.037,inactive: -0.005,inactive: 0.025,inactive: -0.036,,inactive: 0.108,inactive: 0.036,inactive: -0.04,inactive: 0.097,inactive: 0.1,,inactive: -0.313,,
ADD1 isoform 3 (UniProt P35611),inactive: -0.015,inactive: -0.031,inactive: -0.026,inactive: 0.015,inactive: 0.025,inactive: -0.059,inactive: 0.013,inactive: -0.025,inactive: -0.015,inactive: -0.022,inactive: 0.077,inactive: 0.015,inactive: -0.015,inactive: -0.012,inactive: 0.011,inactive: -0.039,inactive: -0.055,inactive: 0.053,,
ALDH1B1 (UniProt P30837),inactive: 0.054,inactive: 0.008,inactive: 0.128,inactive: 0.017,inactive: -0.104,inactive: 0.011,inactive: 0.032,inactive: -0.016,inactive: 0.032,inactive: -0.001,inactive: -0.036,inactive: 0.05,inactive: -0.005,inactive: 0.032,inactive: -0.113,inactive: 0.001,inactive: -0.095,inactive: 0.058,,
ALDH2 (UniProt P05091),inactive: 0.089,inactive: 0.03,inactive: 0.039,inactive: 0.029,active: -0.264,inactive: 0.044,inactive: -0.011,inactive: -0.012,inactive: 0.016,inactive: 0.003,inactive: -0.025,inactive: 0.06,inactive: -0.009,inactive: -0.038,inactive: -0.042,inactive: 0.029,inactive: -0.048,inactive: -0.006,,
AKT2 (UniProt P31751),inactive: 0.018,inactive: 0.033,inactive: 0.006,inactive: 0.019,inactive: 0.069,inactive: -0.007,inactive: 0.015,inactive: -0.017,inactive: 0.069,inactive: 0.079,inactive: -0.017,inactive: -0.253,inactive: 0.128,inactive: 0.079,inactive: -0.175,inactive: -0.026,inactive: -0.038,inactive: -0.119,,
AK6 (UniProt Q9Y3D8),inactive: 0.02,inactive: -0.04,inactive: 0.012,inactive: 0.032,inactive: -0.056,inactive: 0.1,inactive: 0.053,inactive: 0.076,inactive: 0.083,inactive: 0.138,inactive: -0.304,active: -0.438,inactive: -0.001,inactive: 0.08,inactive: -0.007,inactive: 0.148,inactive: 0.027,inactive: -0.322,,
ALDOA (UniProt P04075),inactive: -0.096,inactive: 0.038,inactive: -0.025,,,inactive: 0.008,inactive: -0.077,inactive: 0.07,inactive: -0.148,inactive: -0.124,inactive: 0.075,inactive: 0.128,inactive: -0.004,,inactive: 0.023,inactive: -0.044,inactive: -0.103,inactive: -0.008,inactive: -0.146,inactive: 0.017
AGPAT4 (UniProt Q9NRZ5),inactive: 0.059,inactive: 0.067,inactive: -0.003,,,,inactive: 0.09,inactive: -0.213,inactive: -0.043,inactive: -0.034,inactive: -0.019,inactive: -0.102,inactive: -0.086,,inactive: 0.01,,inactive: -0.125,inactive: -0.062,inactive: 0.076,inactive: -0.023

# For reference, part of the list above:
Target,log2 fold change [1],log2 fold change [2],log2 fold change [3],log2 fold change [4],log2 fold change [5],log2 fold change [6],log2 fold change [7],log2 fold change [8],log2 fold change [9],log2 fold change [10],log2 fold change [11],log2 fold change [12],log2 fold change [13],log2 fold change [14],log2 fold change [15],log2 fold change [16],log2 fold change [17],log2 fold change [18],log2 fold change [19],log2 fold change [20]
AFG1L (UniProt Q8WV93),inactive: 0.036,inactive: 0.037,inactive: 0.042,inactive: 0.015,inactive: -0.122,inactive: 0.115,inactive: 0.041,inactive: -0.018,inactive: 0.013,inactive: 0.01,inactive: 0.047,inactive: -0.223,inactive: 0.207,inactive: 0.035,,inactive: 0.063,inactive: -0.122,,,
AMFR (UniProt Q9UKV5),inactive: -0.013,inactive: 0.01,inactive: -0.029,inactive: -0.104,inactive: -0.033,inactive: 0.005,inactive: 0.009,inactive: -0.042,inactive: 0.086,inactive: 0.041,inactive: -0.205,inactive: -0.215,inactive: 0.044,inactive: 0.049,inactive: 0,inactive: -0.007,inactive: 0.01,inactive: -0.055,,
